These are yes or no findings as the source states them, for the method shown. Some entries that bind do so weakly or less than the wild type.
Tests used:
[1] = target: Human AXL-Strep-His (human) (UniProt P30530); assay: human AXL ELISA after heating in PBS at 40 C for 60 hr
[2] = target: Human AXL-Strep-His (human) (UniProt P30530); assay: ELISA on coated Axl-Strep-His (Protocol 4)
[3] = target: Human AXL-Strep-His (human) (UniProt P30530); assay: human AXL ELISA (Protocol 4), antibody untreated and after 60 hr at 40 °C in PBS, OD 450 nm
[4] = target: Human AXL-Strep-His (human) (UniProt P30530); assay: SPR, Axl-Strep-His antigen
[5] = target: Human AXL-Strep-His (human) (UniProt P30530); assay: ELISA on plate-coated human AXL-Strep-His (Protocol 4), OD 450 nm [panel A. Human Axl]

Sequences of proteins named here, by UniProt entry; tags and fusion partners are left off. A change or cut given only in a name is not applied to a line headed by its entry.
UniProt P30530: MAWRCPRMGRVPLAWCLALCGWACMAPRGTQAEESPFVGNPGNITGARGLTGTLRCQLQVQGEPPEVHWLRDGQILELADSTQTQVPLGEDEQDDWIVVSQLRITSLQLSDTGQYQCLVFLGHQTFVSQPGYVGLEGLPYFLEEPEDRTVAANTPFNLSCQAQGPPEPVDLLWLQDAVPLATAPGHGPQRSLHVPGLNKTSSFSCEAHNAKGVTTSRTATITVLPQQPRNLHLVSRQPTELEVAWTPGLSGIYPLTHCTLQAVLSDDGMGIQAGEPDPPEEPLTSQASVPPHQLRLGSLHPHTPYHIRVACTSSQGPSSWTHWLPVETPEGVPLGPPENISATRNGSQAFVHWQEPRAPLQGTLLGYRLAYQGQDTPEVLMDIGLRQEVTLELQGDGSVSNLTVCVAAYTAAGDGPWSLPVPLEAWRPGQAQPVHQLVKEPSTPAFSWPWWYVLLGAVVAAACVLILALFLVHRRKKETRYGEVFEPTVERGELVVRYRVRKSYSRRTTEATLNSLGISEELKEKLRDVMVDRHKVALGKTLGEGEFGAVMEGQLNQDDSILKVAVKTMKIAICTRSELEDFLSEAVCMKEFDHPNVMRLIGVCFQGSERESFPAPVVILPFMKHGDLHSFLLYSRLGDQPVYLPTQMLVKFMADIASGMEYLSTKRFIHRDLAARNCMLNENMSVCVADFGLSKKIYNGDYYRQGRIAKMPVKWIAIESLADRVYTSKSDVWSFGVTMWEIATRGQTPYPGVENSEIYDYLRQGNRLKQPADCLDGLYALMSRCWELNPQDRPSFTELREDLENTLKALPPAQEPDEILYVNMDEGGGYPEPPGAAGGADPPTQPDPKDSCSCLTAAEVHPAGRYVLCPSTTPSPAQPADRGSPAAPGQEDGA

Measured: binding

B1: Ab5 (antibody, V domains shown)
VH: EVQLVESGGGLVQPGGSLRLSCAASGFTFSSYGMSWVRQAPGKGLEWVATISSGGSYTYYPDSVKGRFTISRDNAKNSLYLQMNSLRAEDTAVYYCARHPIYYTYDDTMDYWGQGTLVTVSS
VL: EIVLTQSPGTLSLSPGERATLSCSASSSVSSGNFHWYQQKPGLAPRLLIYRTSNLASGIPARFSGSGSGTDFTLTISSLEPEDFAVYYCQQWSGYPWTFGGGTKLEIK
binds: all assays above

B2: Ab1 (antibody, V domains shown)
VH: EVQLVESGGDLVKPGGSLKLSCAASGFTFSSYGMSWVRQTPDKRLEWVATISSGGSYTYYPDSVKGRFTISRDNAKNTLYLQMSSLKSEDTAMYYCARHPIYYTYDDTMDYWGQGTSVTVSS
VL: ENVLTQSPAIMAASPGEKVTMTCSASSSVSSGNFHWYQQKPGTSPKLWIYRTSNLASGVPARFSGSGSGTSYSLTISSMEAEDAATYYCQQWSGYPWTFGGGTKLEIK
binds: [1] | [2] | [3]

— US20190352407A1
